# Measurements as given in patent US20260069653A1, “COMPLEMENT INHIBITOR DOSING REGIMENS” (Apellis Pharmaceuticals, Inc., priority 2021, published 2026).
# The name of at least one read-out is uncertain.
# Experiment: Serum concentration of PEG after single IV infusion, ascending dose study
# Format: in vivo, human
substance,measurement,setting,value
"Poly(oxy-1,2-ethanediyl), α-hydro-ω-hydroxy-, 15,15′-diester with N-acetyl-L-isoleucyl-L-cysteinyl-L-valyl-1-methyl-L-tryptophyl-L-glutaminyl-L-α-aspartyl-L-tryptophylglycyl-L-alanyl-L-histidyl-L-arginyl-L-cysteinyl-L-threonyl-2-[2-(2-aminoethoxy)ethoxy]acetyl-N^6-carboxy-L-lysinamide cyclic (2-->12)-(disulfide) [PEG]",time at which peak concentration (Cmax) was observed,single IV 1500 mg,4 h
same,time at which peak concentration (Cmax) was observed,"single IV 200, 600 and 2300 mg, post-dose (infusion start)",1 h
